# From the supplement of paper PMC6411743
# Protein sequences, listed by entry. Tags and fused reporters are not part of them. Lines headed by an entry give the natural chain unless they say otherwise; changes in a name come on top.
# UniProt Q9P000, whole entry: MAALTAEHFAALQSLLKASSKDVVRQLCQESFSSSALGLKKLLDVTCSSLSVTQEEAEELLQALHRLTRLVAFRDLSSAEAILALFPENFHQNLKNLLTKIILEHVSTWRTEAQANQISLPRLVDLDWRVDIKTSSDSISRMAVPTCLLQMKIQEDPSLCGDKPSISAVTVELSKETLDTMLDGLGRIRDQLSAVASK
# UniProt Q9NVP1: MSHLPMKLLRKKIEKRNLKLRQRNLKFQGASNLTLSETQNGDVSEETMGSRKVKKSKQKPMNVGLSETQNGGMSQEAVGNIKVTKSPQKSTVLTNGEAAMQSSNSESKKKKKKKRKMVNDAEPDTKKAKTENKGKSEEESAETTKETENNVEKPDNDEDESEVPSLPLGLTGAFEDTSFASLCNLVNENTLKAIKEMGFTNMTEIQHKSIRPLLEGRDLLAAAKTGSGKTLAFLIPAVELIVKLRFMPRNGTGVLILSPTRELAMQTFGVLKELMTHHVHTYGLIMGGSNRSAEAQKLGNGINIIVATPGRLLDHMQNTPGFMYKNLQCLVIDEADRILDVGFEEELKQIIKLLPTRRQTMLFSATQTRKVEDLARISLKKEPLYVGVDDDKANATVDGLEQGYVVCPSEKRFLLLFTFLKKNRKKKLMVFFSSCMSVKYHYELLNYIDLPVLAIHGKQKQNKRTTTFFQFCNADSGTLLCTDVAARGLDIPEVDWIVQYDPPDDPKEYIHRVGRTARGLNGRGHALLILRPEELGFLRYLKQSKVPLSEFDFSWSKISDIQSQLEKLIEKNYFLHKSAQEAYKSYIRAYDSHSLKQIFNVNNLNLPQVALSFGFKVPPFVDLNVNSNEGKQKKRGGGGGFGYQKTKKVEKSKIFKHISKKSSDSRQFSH
# UniProt Q9NVV4: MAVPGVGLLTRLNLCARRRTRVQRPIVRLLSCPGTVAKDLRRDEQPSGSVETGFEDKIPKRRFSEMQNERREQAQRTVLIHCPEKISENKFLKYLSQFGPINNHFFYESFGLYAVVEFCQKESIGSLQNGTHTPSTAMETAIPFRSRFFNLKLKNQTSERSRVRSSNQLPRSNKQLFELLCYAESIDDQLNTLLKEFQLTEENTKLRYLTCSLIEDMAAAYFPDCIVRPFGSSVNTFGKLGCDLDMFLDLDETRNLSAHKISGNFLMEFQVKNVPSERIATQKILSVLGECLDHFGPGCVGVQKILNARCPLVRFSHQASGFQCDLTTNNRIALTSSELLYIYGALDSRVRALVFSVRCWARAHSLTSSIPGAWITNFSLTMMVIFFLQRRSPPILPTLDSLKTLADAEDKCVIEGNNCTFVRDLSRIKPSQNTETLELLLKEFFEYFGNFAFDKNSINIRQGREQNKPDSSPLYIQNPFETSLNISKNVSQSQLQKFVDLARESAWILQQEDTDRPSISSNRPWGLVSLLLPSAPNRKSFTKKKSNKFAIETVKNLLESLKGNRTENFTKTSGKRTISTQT
# UniProt Q9NVZ3: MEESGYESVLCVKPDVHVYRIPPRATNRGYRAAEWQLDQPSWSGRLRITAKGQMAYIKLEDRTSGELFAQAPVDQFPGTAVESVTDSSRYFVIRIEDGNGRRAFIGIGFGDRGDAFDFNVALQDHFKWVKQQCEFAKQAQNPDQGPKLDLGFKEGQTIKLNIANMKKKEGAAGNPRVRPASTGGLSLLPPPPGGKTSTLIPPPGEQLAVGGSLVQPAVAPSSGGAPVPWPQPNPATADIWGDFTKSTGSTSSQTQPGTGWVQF
# UniProt Q9NUB1: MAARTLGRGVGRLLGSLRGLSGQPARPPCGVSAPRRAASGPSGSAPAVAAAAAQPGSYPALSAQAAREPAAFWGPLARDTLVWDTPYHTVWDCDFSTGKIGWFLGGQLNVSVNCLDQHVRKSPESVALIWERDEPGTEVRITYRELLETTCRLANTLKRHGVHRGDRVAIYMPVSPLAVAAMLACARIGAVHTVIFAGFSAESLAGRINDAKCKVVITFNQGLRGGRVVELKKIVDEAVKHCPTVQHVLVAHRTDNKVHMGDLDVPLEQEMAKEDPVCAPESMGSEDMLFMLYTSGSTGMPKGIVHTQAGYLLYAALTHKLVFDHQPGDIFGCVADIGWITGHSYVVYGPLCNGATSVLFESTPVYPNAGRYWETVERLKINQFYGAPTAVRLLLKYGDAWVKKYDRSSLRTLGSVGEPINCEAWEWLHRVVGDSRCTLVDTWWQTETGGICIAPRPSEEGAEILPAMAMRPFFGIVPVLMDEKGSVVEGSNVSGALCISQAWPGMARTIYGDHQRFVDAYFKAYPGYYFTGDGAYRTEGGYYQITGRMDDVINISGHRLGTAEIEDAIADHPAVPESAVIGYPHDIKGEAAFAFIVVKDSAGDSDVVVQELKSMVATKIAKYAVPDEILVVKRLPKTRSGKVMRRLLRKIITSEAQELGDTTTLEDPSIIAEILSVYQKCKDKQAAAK
# UniProt Q9NRX4: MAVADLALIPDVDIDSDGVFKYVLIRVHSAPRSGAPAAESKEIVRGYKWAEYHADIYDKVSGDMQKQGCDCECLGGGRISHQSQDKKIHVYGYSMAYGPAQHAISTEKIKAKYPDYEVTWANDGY
# UniProt Q9NRP2: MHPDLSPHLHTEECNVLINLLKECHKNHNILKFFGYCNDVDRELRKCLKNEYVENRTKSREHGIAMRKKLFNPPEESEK
# UniProt Q9NWF9: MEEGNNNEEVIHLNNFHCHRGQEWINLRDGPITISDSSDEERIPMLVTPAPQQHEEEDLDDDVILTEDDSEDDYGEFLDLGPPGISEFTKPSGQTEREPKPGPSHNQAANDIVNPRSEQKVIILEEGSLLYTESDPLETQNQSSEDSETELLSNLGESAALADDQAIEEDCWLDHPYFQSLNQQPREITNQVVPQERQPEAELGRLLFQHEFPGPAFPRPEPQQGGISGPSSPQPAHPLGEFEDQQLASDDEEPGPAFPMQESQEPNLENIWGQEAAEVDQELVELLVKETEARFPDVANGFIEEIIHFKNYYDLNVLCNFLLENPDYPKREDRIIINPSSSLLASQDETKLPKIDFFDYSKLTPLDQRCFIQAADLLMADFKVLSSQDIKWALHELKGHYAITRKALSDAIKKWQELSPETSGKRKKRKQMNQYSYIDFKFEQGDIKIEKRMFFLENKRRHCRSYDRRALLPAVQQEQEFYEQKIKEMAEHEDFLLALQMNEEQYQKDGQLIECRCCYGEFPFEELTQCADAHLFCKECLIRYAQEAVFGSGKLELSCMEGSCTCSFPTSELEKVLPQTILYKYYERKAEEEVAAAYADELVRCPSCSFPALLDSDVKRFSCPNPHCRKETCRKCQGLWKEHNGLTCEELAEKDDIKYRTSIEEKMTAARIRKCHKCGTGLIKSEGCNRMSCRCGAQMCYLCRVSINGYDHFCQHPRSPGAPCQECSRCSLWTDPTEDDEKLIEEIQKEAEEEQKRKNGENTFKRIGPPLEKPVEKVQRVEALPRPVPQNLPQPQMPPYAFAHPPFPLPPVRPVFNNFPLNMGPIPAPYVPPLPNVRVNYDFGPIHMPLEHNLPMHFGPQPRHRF
# UniProt Q9NXX6: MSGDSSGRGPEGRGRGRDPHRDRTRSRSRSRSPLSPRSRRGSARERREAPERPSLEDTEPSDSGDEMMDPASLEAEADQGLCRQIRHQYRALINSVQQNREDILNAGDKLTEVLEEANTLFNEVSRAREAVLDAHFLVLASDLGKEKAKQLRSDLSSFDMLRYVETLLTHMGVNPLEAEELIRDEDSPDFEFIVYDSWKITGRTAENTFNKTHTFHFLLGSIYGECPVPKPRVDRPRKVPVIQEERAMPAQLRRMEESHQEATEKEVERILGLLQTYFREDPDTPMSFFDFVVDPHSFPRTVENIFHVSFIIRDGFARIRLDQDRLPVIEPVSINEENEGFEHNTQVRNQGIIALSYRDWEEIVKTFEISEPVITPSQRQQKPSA
# UniProt Q9NZJ7, whole entry: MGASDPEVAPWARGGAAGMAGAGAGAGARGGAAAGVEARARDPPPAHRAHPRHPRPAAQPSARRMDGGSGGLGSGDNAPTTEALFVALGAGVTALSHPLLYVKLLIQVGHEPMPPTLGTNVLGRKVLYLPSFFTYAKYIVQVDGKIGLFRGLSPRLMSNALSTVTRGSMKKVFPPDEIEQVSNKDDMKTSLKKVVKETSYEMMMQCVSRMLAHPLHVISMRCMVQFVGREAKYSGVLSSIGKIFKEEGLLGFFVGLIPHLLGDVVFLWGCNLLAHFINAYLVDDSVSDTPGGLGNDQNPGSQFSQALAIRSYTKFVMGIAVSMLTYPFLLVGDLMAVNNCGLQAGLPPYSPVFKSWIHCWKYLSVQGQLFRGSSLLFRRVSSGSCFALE
# UniProt Q9NS86: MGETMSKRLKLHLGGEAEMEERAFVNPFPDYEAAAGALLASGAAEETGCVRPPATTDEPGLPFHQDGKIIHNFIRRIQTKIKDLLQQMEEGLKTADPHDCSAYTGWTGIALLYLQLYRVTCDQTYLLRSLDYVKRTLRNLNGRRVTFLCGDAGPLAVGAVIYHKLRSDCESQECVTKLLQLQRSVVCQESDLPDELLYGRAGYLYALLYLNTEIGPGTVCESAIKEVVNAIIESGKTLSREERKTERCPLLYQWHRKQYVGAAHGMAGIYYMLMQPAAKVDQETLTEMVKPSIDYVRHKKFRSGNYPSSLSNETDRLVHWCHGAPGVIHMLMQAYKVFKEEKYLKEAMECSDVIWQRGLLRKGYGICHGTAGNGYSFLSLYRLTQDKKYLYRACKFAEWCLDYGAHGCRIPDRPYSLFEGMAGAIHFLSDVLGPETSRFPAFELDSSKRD
# UniProt Q9UBL3, whole entry: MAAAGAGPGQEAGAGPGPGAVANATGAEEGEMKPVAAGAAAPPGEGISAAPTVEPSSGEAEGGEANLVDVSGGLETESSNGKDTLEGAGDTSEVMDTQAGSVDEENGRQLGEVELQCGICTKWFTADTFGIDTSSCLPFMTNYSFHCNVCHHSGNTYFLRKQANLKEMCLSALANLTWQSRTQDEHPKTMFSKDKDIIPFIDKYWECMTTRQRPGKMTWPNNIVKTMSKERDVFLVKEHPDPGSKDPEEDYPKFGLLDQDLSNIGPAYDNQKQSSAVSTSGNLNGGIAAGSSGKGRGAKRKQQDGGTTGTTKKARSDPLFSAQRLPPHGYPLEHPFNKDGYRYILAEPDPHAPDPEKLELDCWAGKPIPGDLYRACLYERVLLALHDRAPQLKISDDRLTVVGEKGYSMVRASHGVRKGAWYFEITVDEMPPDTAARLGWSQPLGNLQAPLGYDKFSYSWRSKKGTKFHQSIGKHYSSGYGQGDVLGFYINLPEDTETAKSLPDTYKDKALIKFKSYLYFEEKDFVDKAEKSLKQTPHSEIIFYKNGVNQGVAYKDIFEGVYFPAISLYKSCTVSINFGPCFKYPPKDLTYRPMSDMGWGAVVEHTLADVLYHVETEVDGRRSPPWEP
# UniProt Q9NX62: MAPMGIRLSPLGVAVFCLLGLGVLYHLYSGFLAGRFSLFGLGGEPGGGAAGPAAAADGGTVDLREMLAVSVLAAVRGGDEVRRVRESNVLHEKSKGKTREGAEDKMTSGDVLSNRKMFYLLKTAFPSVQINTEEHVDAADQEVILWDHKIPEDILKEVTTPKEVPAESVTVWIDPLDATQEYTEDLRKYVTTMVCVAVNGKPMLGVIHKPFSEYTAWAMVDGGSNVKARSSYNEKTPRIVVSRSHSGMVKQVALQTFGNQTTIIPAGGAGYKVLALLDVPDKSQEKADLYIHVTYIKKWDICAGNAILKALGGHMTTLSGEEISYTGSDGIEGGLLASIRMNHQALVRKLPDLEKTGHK
# UniProt Q9NVF7: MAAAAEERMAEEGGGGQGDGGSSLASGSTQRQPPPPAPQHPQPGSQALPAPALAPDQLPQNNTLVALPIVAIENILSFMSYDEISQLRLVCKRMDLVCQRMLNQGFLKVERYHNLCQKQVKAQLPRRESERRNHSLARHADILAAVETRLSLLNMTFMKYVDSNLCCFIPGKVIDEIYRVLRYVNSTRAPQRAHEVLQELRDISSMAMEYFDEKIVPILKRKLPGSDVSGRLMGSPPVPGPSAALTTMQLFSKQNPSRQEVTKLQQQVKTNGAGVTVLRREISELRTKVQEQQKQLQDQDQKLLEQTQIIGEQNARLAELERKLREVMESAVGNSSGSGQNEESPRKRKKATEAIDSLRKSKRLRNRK
# UniProt Q9NZW5: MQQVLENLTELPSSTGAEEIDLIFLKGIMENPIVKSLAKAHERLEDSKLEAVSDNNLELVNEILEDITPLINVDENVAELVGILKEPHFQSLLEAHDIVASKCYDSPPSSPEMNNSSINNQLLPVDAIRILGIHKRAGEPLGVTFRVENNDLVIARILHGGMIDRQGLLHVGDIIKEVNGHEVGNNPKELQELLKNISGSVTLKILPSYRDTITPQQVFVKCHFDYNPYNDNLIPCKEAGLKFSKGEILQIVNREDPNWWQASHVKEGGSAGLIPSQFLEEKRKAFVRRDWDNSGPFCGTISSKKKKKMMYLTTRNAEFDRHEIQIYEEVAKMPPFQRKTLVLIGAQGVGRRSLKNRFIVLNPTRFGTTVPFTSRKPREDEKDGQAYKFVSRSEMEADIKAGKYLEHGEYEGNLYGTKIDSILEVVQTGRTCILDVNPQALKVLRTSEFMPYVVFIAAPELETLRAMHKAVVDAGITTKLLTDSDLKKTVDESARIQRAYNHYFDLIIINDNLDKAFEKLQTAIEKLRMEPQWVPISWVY
# ± gives the standard deviation of the averaged measurements. The entries are a selection whose mix differs from that of the whole data set.
# Compound: Nc1ncnc2c1ncn2[C@@H]1O[C@H](COP(=O)(O)OP(=O)(O)NP(=O)(O)O)[C@@H](O)[C@H]1O [adenylyl imidodiphosphate]
# Experiment: NP40-soluble protein abundance relative to vehicle (solubility fold change) (ratio); higher = more soluble protein in presence of AMP-PNP
# Conditions: concentration: 6mM
# Method in brief: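 Jurkat crude lysate prepared with a Dounce homogeniser was treated at eight concentrations spanning 0.1 to 10 mM, 10 min at room temperature then 3 min at 37 °C. Solubilisation with 0.8% NP40 and benzonase and ultracentrifugation preceded TMT labelling of the supernatant for LC-MS/MS. Fold change against the detergent-processed vehicle was determined per replicate from vsn-normalised intensities, across three independent experiments.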
row,Target,NP40-soluble protein abundance
1,COMMD9 (UniProt Q9P000),0.982 ± 0.02
2,TMEM160 (UniProt Q9NX00),1.02 ± 0.034
3,ACTR10 (UniProt Q9NZ32),0.961 ± 0.058
4,DHCR7 (UniProt Q9UBM7),0.986 ± 0.035
5,UniProt Q9NYU2 and related entries,0.917 ± 0.031
6,DDX18 (UniProt Q9NVP1),1.24 ± 0.075
7,UniProt Q9P2D3 and related entries,0.993 ± 0.022
8,MTPAP (UniProt Q9NVV4),0.932 ± 0.047
9,NECAP2 (UniProt Q9NVZ3),0.999 ± 0.013
10,LYAR (UniProt Q9NX58),1.12 ± 0.093
11,UniProt Q9NUB1 and related entries,0.955 ± 0.054
12,HECA (UniProt Q9UBI9),1.034 ± 0.0078
13,PHPT1 (UniProt Q9NRX4),0.988 ± 0.019
14,TMEM9B (UniProt Q9NQ34),0.978 ± 0.017
15,UniProt Q9NRP2 and related entries,0.97 ± 0.046
16,UniProt Q9NQY0 and related entries,1.01 ± 0.032
17,UniProt Q9P0J0 and related entries,0.856 ± 0.017
18,UniProt Q9NYF8 and related entries,1.29 ± 0.1

row,Target,NP40-soluble protein abundance
1,UniProt Q9NWF9 and related entries,0.95 ± 0.03
2,NANS (UniProt Q9NR45),0.954 ± 0.015
3,DNAJC17 (UniProt Q9NVM6),1.08 ± 0.017
4,UniProt Q9NZB8 and related entries,0.977 ± 0.061
5,UniProt Q9NV56,1.04 ± 0.085
6,UniProt Q9NUL5 and related entries,1.03 ± 0.033
7,CPSF2 (UniProt Q9P2I0),1.03 ± 0.061
8,NSMCE4A (UniProt Q9NXX6),0.933 ± 0.017
9,UniProt Q9NZJ7 and related entries,0.946 ± 0.035
10,MRPL40 (UniProt Q9NQ50),0.943 ± 0.11
11,LANCL2 (UniProt Q9NS86),0.998 ± 0.028
12,UniProt Q9NV88 and related entries,0.991 ± 0.044
13,LARS (UniProt Q9P2J5),0.912 ± 0.13
14,UniProt Q9UBL3 and related entries,1 ± 0.023
15,IMPAD1 (UniProt Q9NX62),0.989 ± 0.013
16,FBXO28 (UniProt Q9NVF7),1.13 ± 0.015
17,MPP6 (UniProt Q9NZW5),0.968 ± 0.021
18,UniProt Q9NZT2 and related entries,1.03 ± 0.03

# Same assay, conditions: concentration: 8mM
row,Target,NP40-soluble protein abundance
1,COMMD9 (UniProt Q9P000),0.974 ± 0.015
2,TMEM160 (UniProt Q9NX00),1.02 ± 0.028
3,ACTR10 (UniProt Q9NZ32),0.957 ± 0.062
4,DHCR7 (UniProt Q9UBM7),1 ± 0.058
5,UniProt Q9NYU2 and related entries,0.936 ± 0.04
6,DDX18 (UniProt Q9NVP1),1.35 ± 0.12
7,UniProt Q9P2D3 and related entries,1 ± 0.026
8,MTPAP (UniProt Q9NVV4),0.994 ± 0.091
9,NECAP2 (UniProt Q9NVZ3),0.984 ± 0.011
10,LYAR (UniProt Q9NX58),1.1 ± 0.073
11,UniProt Q9NUB1 and related entries,0.984 ± 0.037
12,HECA (UniProt Q9UBI9),1.06 ± 0.046
13,PHPT1 (UniProt Q9NRX4),0.964 ± 0.035
14,TMEM9B (UniProt Q9NQ34),0.982 ± 0.032
15,UniProt Q9NRP2 and related entries,0.91 ± 0.04
16,UniProt Q9NQY0 and related entries,1.04 ± 0.02
17,UniProt Q9P0J0 and related entries,0.877 ± 0.037
18,UniProt Q9NYF8 and related entries,1.31 ± 0.11

row,Target,NP40-soluble protein abundance
1,UniProt Q9NWF9 and related entries,0.973 ± 0.038
2,NANS (UniProt Q9NR45),0.948 ± 0.036
3,DNAJC17 (UniProt Q9NVM6),1.11 ± 0.054
4,UniProt Q9NZB8 and related entries,0.993 ± 0.063
5,UniProt Q9NV56,1.02 ± 0.11
6,UniProt Q9NUL5 and related entries,1.07 ± 0.019
7,CPSF2 (UniProt Q9P2I0),1.05 ± 0.035
8,NSMCE4A (UniProt Q9NXX6),0.96 ± 0.026
9,UniProt Q9NZJ7 and related entries,0.964 ± 0.017
10,MRPL40 (UniProt Q9NQ50),0.957 ± 0.094
11,LANCL2 (UniProt Q9NS86),1.03 ± 0.038
12,UniProt Q9NV88 and related entries,1.02 ± 0.069
13,LARS (UniProt Q9P2J5),0.929 ± 0.14
14,UniProt Q9UBL3 and related entries,0.99 ± 0.017
15,IMPAD1 (UniProt Q9NX62),0.98 ± 0.036
16,FBXO28 (UniProt Q9NVF7),1.15 ± 0.02
17,MPP6 (UniProt Q9NZW5),0.965 ± 0.019
18,UniProt Q9NZT2 and related entries,1.01 ± 0.042

# Same assay, conditions: concentration: 10mM
row,Target,NP40-soluble protein abundance
1,COMMD9 (UniProt Q9P000),0.989 ± 0.0045
2,TMEM160 (UniProt Q9NX00),1.01 ± 0.035
3,ACTR10 (UniProt Q9NZ32),0.949 ± 0.076
4,DHCR7 (UniProt Q9UBM7),0.986 ± 0.061
5,UniProt Q9NYU2 and related entries,0.895 ± 0.036
6,DDX18 (UniProt Q9NVP1),1.43 ± 0.15
7,UniProt Q9P2D3 and related entries,0.968 ± 0.023
8,MTPAP (UniProt Q9NVV4),1.08 ± 0.11
9,NECAP2 (UniProt Q9NVZ3),0.998 ± 0.046
10,LYAR (UniProt Q9NX58),1.18 ± 0.14
11,UniProt Q9NUB1 and related entries,0.944 ± 0.048
12,HECA (UniProt Q9UBI9),1.04 ± 0.024
13,PHPT1 (UniProt Q9NRX4),0.951 ± 0.035
14,TMEM9B (UniProt Q9NQ34),0.986 ± 0.013
15,UniProt Q9NRP2 and related entries,0.939 ± 0.038
16,UniProt Q9NQY0 and related entries,1 ± 0.011
17,UniProt Q9P0J0 and related entries,0.792 ± 0.047
18,UniProt Q9NYF8 and related entries,1.43 ± 0.12

row,Target,NP40-soluble protein abundance
1,UniProt Q9NWF9 and related entries,0.972 ± 0.035
2,NANS (UniProt Q9NR45),0.918 ± 0.027
3,DNAJC17 (UniProt Q9NVM6),1.08 ± 0.03
4,UniProt Q9NZB8 and related entries,0.968 ± 0.081
5,UniProt Q9NV56,1.06 ± 0.13
6,UniProt Q9NUL5 and related entries,1.03 ± 0.026
7,CPSF2 (UniProt Q9P2I0),1.07 ± 0.055
8,NSMCE4A (UniProt Q9NXX6),0.941 ± 0.09
9,UniProt Q9NZJ7 and related entries,0.962 ± 0.033
10,MRPL40 (UniProt Q9NQ50),0.957 ± 0.083
11,LANCL2 (UniProt Q9NS86),0.98 ± 0.035
12,UniProt Q9NV88 and related entries,1.01 ± 0.081
13,LARS (UniProt Q9P2J5),0.898 ± 0.19
14,UniProt Q9UBL3 and related entries,1.03 ± 0.033
15,IMPAD1 (UniProt Q9NX62),0.992 ± 0.078
16,FBXO28 (UniProt Q9NVF7),1.14 ± 0.073
17,MPP6 (UniProt Q9NZW5),0.955 ± 0.026
18,UniProt Q9NZT2 and related entries,1.05 ± 0.07
